# Laboratory results reported in the supplement of paper PMC8728848.
# Some of the results follow.
# B1: GS7807I-bvu-563-22-563 (Bacteroides vulgatus) (protein)
# chain: IFSSCTDDFEKLNTSNIQVDPADLPFAAQCTEPMTYCYPPQQNMFQFWTNLTIDLYGGYFMTPNGNFTNGDMGENRGHSGGMYENYYLHIFNNTRRIIAQCDASGERGLSGVMRIVQAYGTLMTTDAYGPIPYSSILSGENEVYFEFDSQKDLYKAMLEDLSTAITDISAMGADEIAKLKSFDCWCNGDKDLWVKIANTMKLRMALRLSKRETEAGNAGMNLKAIATEAAQNTLATVNKDILIDKSLENEMWLMFNWGDCGFNANLVTIMSGTKDPRQPLYMTLNTGDIKNEAGTTTVAANSQYLGIRFASGLPAKPNSWGNFSGWIQGNNGSSYSMPLPIMKAAEAYFLLAEAKLRWDIGSESVKNLYENGIRVSMTNELAYRGAYAGIKEYPEGAVDAYINGTSTQIDYTDPIKAELSTPAVNKLSVKWDESASNEEKLERIITQKWLALFPLSTEGWAEQRRTGYPRFFPAFVNESNGAVNTEEGVRRVIYSSQAYDANAKGVEGGIKLLDEENSSKFGISGDKGGTHLWWDNADKGNF
# Columns and labels:
# Assay in all cases: glycan array binding signal (z-score within array); higher = stronger binding
# Conditions in all cases: glycan notation: IUPAC condensed, linker removed
# [1] = target: Fuc(a1-2)Gal(b1-4)GlcNAc(b1-3)Gal(b1-4)GlcNAc(b1-3)Gal(b1-4)GlcNAc
# How it was run: (§1)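 From the Consortium for Functional Glycomics database, 3228 arrays were curated, keeping only those whose protein sequence was available. Binding is given as a within-array Z-score averaged across arrays sharing a protein sequence and across linkers. Negative Z-scores can be read as non-binding.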
# [2] = target: Fuc(a1-2)Gal(b1-4)GlcNAc(b1-3)GalNAc
# How it was run: as §1
# [3] = target: Fuc(a1-2)Gal(b1-4)GlcNAc(b1-3)[Fuc(a1-2)Gal(b1-4)GlcNAc(b1-6)]GalNAc
# How it was run: as §1
# [4] = target: Fuc(a1-2)Gal(b1-4)GlcNAc(b1-3)[Fuc(a1-3)[Gal(b1-4)]GlcNAc(b1-6)]Gal(b1-4)Glc
# How it was run: as §1
# [5] = target: Fuc(a1-2)Gal(b1-4)GlcNAc(b1-6)GalNAc
# How it was run: as §1
# [6] = target: Fuc(a1-2)Gal(b1-4)GlcNAc6S
# How it was run: as §1
# [7] = target: Fuc(a1-2)Gal(b1-4)[Fuc(a1-3)]GlcNAc
# How it was run: as §1
# [8] = target: Fuc(a1-2)Gal(b1-4)[Fuc(a1-3)]GlcNAc(b1-2)Man(a1-3)[Fuc(a1-2)Gal(b1-4)[Fuc(a1-3)]GlcNAc(b1-2)Man(a1-6)]Man(b1-4)GlcNAc(b1-4)[Fuc(a1-6)]GlcNAc
# How it was run: as §1
# [9] = target: Fuc(a1-2)Gal(b1-4)[Fuc(a1-3)]GlcNAc(b1-2)[Fuc(a1-2)Gal(b1-4)[Fuc(a1-3)]GlcNAc(b1-4)]Man(a1-3)[Fuc(a1-2)Gal(b1-4)[Fuc(a1-3)]GlcNAc(b1-2)Man(a1-6)]Man(b1-4)GlcNAc(b1-4)GlcNAc
# How it was run: as §1
# [10] = target: Fuc(a1-2)Gal(b1-4)[Fuc(a1-3)]GlcNAc(b1-3)Gal(b1-4)[Fuc(a1-3)]GlcNAc
# How it was run: as §1
# [11] = target: Fuc(a1-2)Gal(b1-4)[Fuc(a1-3)]GlcNAc(b1-3)Gal(b1-4)[Fuc(a1-3)]GlcNAc(b1-3)Gal(b1-4)[Fuc(a1-3)]GlcNAc
# How it was run: as §1
# [12] = target: Fuc(a1-2)Gal(b1-4)[Fuc(a1-3)]GlcNAc(b1-3)GalNAc
# How it was run: as §1
# [13] = target: Fuc(a1-2)Gal(b1-4)[Fuc(a1-3)]GlcNAc(b1-3)[Neu5Ac(a2-6)Gal(b1-4)GlcNAc(b1-6)]Gal(b1-4)Glc
# How it was run: as §1
# [14] = target: Fuc(a1-2)Gal3S(b1-4)GlcNAc
# How it was run: as §1
# [15] = target: Fuc(a1-2)Gal6S(b1-3)GlcNAc
# How it was run: as §1
# [16] = target: Fuc(a1-2)Gal6S(b1-3)GlcNAc6S
# How it was run: as §1
# [17] = target: Fuc(a1-2)Gal6S(b1-4)Glc
# How it was run: as §1
# [18] = target: Fuc(a1-2)Gal6S(b1-4)Glc6S
# How it was run: as §1
# [19] = target: Fuc(a1-2)[Gal(a1-3)]Gal
# How it was run: as §1
# [20] = target: Fuc(a1-2)[Gal(a1-3)]Gal(b1-3)GalNAc
# How it was run: as §1
# [21] = target: Fuc(a1-2)[Gal(a1-3)]Gal(b1-3)GalNAc(b1-3)Gal(a1-4)Gal(b1-4)Glc
# How it was run: as §1
# [22] = target: Fuc(a1-2)[Gal(a1-3)]Gal(b1-3)GlcNAc
# How it was run: as §1
# [23] = target: Fuc(a1-2)[Gal(a1-3)]Gal(b1-3)GlcNAc(b1-2)Man(a1-3)[Fuc(a1-2)[Gal(a1-3)]Gal(b1-3)GlcNAc(b1-2)Man(a1-6)]Man(b1-4)GlcNAc(b1-4)GlcNAc
# How it was run: as §1
# [24] = target: Fuc(a1-2)[Gal(a1-3)]Gal(b1-3)GlcNAc(b1-2)Man(a1-3)[Fuc(a1-2)[Gal(a1-3)]Gal(b1-3)GlcNAc(b1-2)Man(a1-6)]Man(b1-4)GlcNAc(b1-4)[Fuc(a1-6)]GlcNAc
# How it was run: as §1
# [25] = target: Fuc(a1-2)[Gal(a1-3)]Gal(b1-3)GlcNAc(b1-3)GalNAc
# How it was run: as §1
# [26] = target: Fuc(a1-2)[Gal(a1-3)]Gal(b1-3)GlcNAc(b1-6)GalNAc
# How it was run: as §1
# [27] = target: Fuc(a1-2)[Gal(a1-3)]Gal(b1-4)Glc
# How it was run: as §1
# [28] = target: Fuc(a1-2)[Gal(a1-3)]Gal(b1-4)GlcNAc
# How it was run: as §1
# [29] = target: Fuc(a1-2)[Gal(a1-3)]Gal(b1-4)GlcNAc(b1-2)Man
# How it was run: as §1
# [30] = target: Fuc(a1-2)[Gal(a1-3)]Gal(b1-4)GlcNAc(b1-2)Man(a1-3)[Fuc(a1-2)[Gal(a1-3)]Gal(b1-4)GlcNAc(b1-2)Man(a1-6)]Man(b1-4)GlcNAc(b1-4)GlcNAc
# How it was run: as §1
binder,measurement,setting,value
B1,glycan array binding signal (z-score),[1],-0.467
same,glycan array binding signal (z-score),[2],2.15
same,glycan array binding signal (z-score),[3],-0.146
same,glycan array binding signal (z-score),[4],-0.07
same,glycan array binding signal (z-score),[5],0.799
same,glycan array binding signal (z-score),[6],0.744
same,glycan array binding signal (z-score),[7],-1.33
same,glycan array binding signal (z-score),[8],-0.119
same,glycan array binding signal (z-score),[9],-0.709
same,glycan array binding signal (z-score),[10],-0.323
same,glycan array binding signal (z-score),[11],0.752
same,glycan array binding signal (z-score),[12],0.105
same,glycan array binding signal (z-score),[13],-0.243
same,glycan array binding signal (z-score),[14],-1.92
same,glycan array binding signal (z-score),[15],1.12
same,glycan array binding signal (z-score),[16],0.67
same,glycan array binding signal (z-score),[17],0.511
same,glycan array binding signal (z-score),[18],0.827
same,glycan array binding signal (z-score),[19],-0.24
same,glycan array binding signal (z-score),[20],-0.741
same,glycan array binding signal (z-score),[21],0.129
same,glycan array binding signal (z-score),[22],-0.036
same,glycan array binding signal (z-score),[23],0.67
same,glycan array binding signal (z-score),[24],-0.026
same,glycan array binding signal (z-score),[25],-0.924
same,glycan array binding signal (z-score),[26],0.231
same,glycan array binding signal (z-score),[27],0.324
same,glycan array binding signal (z-score),[28],0.026
same,glycan array binding signal (z-score),[29],0.101
same,glycan array binding signal (z-score),[30],1.45

# Given with bars between the fields: part of the list above
binder | measurement | setting | value
B1 | glycan array binding signal (z-score) | [4] | -0.07
same | glycan array binding signal (z-score) | [5] | 0.799
